Test results published in paper doi:10.1101/2022.10.27.514025.

Amino acid sequences for entries named in this document (tags omitted).
UniProt P06748: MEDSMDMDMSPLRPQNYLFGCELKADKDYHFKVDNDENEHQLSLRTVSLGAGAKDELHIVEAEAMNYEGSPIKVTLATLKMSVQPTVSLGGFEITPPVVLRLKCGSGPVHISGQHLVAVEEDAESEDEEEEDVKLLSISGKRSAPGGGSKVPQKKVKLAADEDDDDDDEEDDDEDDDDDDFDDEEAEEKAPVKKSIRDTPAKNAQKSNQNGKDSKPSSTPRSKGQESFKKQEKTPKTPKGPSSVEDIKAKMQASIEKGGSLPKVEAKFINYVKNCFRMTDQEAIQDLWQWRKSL
UniProt P46013: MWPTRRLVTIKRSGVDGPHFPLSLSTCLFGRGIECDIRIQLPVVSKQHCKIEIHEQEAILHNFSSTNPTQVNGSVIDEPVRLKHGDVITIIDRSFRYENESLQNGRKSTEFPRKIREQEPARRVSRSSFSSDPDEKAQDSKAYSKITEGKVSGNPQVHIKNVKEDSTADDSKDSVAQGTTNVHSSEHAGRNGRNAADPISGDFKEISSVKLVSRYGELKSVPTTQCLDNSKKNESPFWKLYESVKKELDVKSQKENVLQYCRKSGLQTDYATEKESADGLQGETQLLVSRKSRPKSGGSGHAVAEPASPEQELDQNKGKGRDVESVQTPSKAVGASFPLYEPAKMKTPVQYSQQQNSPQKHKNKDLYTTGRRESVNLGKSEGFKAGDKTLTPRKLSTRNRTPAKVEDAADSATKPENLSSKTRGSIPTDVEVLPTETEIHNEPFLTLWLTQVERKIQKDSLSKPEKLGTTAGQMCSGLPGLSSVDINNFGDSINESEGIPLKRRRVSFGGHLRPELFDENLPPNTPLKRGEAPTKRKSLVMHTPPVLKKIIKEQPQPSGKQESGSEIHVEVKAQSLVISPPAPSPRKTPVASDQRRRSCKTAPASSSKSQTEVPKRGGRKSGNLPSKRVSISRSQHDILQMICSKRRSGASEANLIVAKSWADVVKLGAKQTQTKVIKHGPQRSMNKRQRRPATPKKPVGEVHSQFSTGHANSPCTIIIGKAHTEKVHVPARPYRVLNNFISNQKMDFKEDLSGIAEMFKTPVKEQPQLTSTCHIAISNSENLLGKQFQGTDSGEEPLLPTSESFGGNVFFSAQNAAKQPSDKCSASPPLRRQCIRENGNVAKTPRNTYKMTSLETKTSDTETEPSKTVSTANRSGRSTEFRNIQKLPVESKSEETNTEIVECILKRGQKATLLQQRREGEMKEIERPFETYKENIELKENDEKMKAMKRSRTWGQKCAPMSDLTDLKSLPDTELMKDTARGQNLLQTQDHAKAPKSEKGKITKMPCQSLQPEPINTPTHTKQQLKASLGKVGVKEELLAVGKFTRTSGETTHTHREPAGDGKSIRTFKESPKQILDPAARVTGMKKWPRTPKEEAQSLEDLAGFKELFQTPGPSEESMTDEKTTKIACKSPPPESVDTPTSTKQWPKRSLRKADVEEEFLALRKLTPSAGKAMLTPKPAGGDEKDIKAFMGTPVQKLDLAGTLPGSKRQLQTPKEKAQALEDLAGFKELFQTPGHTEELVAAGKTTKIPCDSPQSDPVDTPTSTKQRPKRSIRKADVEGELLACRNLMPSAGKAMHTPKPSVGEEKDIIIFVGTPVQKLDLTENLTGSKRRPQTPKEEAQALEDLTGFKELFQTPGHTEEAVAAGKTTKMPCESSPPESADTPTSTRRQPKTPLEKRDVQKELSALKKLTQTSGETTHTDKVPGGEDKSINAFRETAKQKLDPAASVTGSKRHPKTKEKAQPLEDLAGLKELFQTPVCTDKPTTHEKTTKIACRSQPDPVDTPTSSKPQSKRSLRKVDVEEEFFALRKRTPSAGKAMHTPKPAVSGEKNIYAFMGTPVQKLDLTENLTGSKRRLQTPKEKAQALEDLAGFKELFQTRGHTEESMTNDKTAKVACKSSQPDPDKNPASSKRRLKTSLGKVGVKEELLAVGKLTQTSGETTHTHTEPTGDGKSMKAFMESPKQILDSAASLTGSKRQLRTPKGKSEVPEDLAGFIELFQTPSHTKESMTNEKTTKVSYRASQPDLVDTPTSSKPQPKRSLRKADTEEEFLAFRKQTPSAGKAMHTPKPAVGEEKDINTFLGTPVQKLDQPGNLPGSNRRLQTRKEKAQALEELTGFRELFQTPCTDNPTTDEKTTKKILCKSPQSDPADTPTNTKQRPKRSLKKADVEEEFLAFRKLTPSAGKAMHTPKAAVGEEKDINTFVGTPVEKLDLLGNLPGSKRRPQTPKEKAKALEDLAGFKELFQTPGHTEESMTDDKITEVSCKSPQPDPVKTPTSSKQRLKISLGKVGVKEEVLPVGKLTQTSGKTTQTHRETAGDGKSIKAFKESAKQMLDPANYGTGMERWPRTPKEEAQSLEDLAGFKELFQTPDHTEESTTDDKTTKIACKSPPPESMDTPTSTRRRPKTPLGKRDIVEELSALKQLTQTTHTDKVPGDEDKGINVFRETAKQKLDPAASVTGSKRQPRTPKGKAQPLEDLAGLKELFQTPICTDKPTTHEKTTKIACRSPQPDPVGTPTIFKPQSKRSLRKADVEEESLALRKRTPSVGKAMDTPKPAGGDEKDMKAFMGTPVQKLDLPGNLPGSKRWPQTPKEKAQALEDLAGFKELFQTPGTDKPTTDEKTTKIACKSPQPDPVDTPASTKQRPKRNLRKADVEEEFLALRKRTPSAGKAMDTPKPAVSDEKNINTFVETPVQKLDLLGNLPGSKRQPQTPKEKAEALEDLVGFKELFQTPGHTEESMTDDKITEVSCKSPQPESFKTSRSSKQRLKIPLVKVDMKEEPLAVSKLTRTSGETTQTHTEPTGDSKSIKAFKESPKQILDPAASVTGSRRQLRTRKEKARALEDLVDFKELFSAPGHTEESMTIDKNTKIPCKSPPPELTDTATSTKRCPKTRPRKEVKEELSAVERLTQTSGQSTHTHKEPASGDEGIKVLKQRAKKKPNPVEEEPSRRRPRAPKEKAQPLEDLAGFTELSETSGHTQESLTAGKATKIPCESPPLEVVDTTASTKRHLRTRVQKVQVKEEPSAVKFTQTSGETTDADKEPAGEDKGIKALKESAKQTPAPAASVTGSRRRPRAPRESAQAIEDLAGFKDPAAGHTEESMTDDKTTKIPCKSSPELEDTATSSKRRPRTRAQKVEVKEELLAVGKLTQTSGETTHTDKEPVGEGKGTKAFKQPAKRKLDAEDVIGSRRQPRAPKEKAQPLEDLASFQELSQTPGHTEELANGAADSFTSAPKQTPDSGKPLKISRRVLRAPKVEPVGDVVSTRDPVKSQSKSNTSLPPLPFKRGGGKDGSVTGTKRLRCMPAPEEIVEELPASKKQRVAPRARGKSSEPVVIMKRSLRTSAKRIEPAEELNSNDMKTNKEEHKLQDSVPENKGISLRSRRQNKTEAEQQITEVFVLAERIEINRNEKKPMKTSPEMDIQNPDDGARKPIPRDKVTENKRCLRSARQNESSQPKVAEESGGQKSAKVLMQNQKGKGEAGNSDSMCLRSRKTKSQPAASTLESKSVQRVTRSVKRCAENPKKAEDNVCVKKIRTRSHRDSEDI
UniProt Q9NR30: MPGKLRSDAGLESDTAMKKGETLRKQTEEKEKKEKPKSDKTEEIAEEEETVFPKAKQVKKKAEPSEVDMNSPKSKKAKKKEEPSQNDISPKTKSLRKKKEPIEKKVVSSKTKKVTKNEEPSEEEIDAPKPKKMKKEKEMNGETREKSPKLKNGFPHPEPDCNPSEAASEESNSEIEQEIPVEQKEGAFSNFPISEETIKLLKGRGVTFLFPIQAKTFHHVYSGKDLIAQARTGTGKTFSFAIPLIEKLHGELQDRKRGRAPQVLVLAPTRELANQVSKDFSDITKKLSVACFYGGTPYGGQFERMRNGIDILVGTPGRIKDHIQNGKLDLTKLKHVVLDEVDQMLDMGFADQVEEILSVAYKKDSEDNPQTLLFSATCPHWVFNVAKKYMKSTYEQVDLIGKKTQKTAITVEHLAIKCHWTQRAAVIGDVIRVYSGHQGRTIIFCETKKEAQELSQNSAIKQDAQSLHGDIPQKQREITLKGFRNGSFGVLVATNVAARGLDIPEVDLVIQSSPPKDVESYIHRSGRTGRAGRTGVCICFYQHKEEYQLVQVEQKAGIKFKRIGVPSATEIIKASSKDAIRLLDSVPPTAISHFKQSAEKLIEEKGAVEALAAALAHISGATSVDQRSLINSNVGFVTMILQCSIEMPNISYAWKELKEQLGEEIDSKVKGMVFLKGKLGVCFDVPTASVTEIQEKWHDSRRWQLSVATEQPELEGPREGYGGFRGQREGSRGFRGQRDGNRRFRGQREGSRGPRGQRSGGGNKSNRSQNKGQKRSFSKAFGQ

T1: GNL3-BirA-FLAG (human) (UniProt Q9BVP2)
T1 sequence: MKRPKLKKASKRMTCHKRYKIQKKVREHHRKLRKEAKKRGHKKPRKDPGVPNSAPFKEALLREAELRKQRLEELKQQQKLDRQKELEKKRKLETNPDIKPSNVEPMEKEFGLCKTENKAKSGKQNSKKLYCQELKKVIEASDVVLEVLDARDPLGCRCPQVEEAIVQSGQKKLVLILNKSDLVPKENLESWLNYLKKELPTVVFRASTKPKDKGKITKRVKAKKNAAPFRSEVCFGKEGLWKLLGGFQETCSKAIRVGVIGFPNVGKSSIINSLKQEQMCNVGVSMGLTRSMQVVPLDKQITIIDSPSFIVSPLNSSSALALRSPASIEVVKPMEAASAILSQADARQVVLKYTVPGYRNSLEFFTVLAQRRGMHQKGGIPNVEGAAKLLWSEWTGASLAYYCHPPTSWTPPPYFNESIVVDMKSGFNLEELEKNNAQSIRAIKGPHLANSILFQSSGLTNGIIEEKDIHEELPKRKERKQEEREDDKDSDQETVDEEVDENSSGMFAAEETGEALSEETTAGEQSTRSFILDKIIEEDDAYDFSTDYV

T2: ORC2 (human (endogenous in HEK293, K562 and HeLa)) (UniProt Q13416)
T2 sequence: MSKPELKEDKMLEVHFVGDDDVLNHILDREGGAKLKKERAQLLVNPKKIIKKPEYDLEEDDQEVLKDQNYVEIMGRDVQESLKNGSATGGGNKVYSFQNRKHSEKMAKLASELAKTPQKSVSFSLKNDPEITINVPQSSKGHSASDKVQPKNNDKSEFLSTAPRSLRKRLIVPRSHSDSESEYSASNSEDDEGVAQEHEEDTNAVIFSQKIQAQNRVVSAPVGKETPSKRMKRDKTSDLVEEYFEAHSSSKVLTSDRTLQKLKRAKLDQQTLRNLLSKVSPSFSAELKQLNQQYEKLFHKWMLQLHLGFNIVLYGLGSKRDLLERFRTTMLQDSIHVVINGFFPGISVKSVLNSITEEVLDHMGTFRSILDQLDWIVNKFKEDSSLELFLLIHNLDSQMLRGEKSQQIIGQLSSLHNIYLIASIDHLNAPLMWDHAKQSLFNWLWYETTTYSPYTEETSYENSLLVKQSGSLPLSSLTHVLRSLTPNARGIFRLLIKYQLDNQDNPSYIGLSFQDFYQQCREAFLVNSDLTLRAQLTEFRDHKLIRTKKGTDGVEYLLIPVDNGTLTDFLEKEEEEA

B1: ORC2 (protein, UniProt Q13416 1-577)
chain: MSKPELKEDKMLEVHFVGDDDVLNHILDREGGAKLKKERAQLLVNPKKIIKKPEYDLEEDDQEVLKDQNYVEIMGRDVQESLKNGSATGGGNKVYSFQNRKHSEKMAKLASELAKTPQKSVSFSLKNDPEITINVPQSSKGHSASDKVQPKNNDKSEFLSTAPRSLRKRLIVPRSHSDSESEYSASNSEDDEGVAQEHEEDTNAVIFSQKIQAQNRVVSAPVGKETPSKRMKRDKTSDLVEEYFEAHSSSKVLTSDRTLQKLKRAKLDQQTLRNLLSKVSPSFSAELKQLNQQYEKLFHKWMLQLHLGFNIVLYGLGSKRDLLERFRTTMLQDSIHVVINGFFPGISVKSVLNSITEEVLDHMGTFRSILDQLDWIVNKFKEDSSLELFLLIHNLDSQMLRGEKSQQIIGQLSSLHNIYLIASIDHLNAPLMWDHAKQSLFNWLWYETTTYSPYTEETSYENSLLVKQSGSLPLSSLTHVLRSLTPNARGIFRLLIKYQLDNQDNPSYIGLSFQDFYQQCREAFLVNSDLTLRAQLTEFRDHKLIRTKKGTDGVEYLLIPVDNGTLTDFLEKEEEEA
B2: GNL3L (protein, UniProt Q9NVN8 1-582)
chain: MMKLRHKNKKPGEGSKGHKKISWPYPQPAKQNGKKATSKVPSAPHFVHPNDHANREAELKKKWVEEMREKQQAAREQERQKRRTIESYCQDVLRRQEEFEHKEEVLQELNMFPQLDDEATRKAYYKEFRKVVEYSDVILEVLDARDPLGCRCFQMEEAVLRAQGNKKLVLVLNKIDLVPKEVVEKWLDYLRNELPTVAFKASTQHQVKNLNRCSVPVDQASESLLKSKACFGAENLMRVLGNYCRLGEVRTHIRVGVVGLPNVGKSSLINSLKRSRACSVGAVPGITKFMQEVYLDKFIRLLDAPGIVPGPNSEVGTILRNCVHVQKLADPVTPVETILQRCNLEEISNYYGVSGFQTTEHFLTAVAHRLGKKKKGGLYSQEQAAKAVLADWVSGKISFYIPPPATHTLPTHLSAEIVKEMTEVFDIEDTEQANEDTMECLATGESDELLGDTDPLEMEIKLLHSPMTKIADAIENKTTVYKIGDLTGYCTNPNRHQMGWAKRNVDHRPKSNSMVDVCSVDRRSVLQRIMETDPLQQGQALASALKNKKKMQKRADKIASKLSDSMMSALDLSGNADDGVGD
B3: GNL3/nucleostemin (protein, UniProt Q9BVP2 1-549)
chain: MKRPKLKKASKRMTCHKRYKIQKKVREHHRKLRKEAKKRGHKKPRKDPGVPNSAPFKEALLREAELRKQRLEELKQQQKLDRQKELEKKRKLETNPDIKPSNVEPMEKEFGLCKTENKAKSGKQNSKKLYCQELKKVIEASDVVLEVLDARDPLGCRCPQVEEAIVQSGQKKLVLILNKSDLVPKENLESWLNYLKKELPTVVFRASTKPKDKGKITKRVKAKKNAAPFRSEVCFGKEGLWKLLGGFQETCSKAIRVGVIGFPNVGKSSIINSLKQEQMCNVGVSMGLTRSMQVVPLDKQITIIDSPSFIVSPLNSSSALALRSPASIEVVKPMEAASAILSQADARQVVLKYTVPGYRNSLEFFTVLAQRRGMHQKGGIPNVEGAAKLLWSEWTGASLAYYCHPPTSWTPPPYFNESIVVDMKSGFNLEELEKNNAQSIRAIKGPHLANSILFQSSGLTNGIIEEKDIHEELPKRKERKQEEREDDKDSDQETVDEEVDENSSGMFAAEETGEALSEETTAGEQSTRSFILDKIIEEDDAYDFSTDYV

target: T1, GNL3-BirA-FLAG (human); experiment: proximity labelling

binding, binds:
NPM1 (from UniProt P06748 1-294)
GNL2 (from UniProt Q13823 1-731)
Ki67 (from UniProt P46013 1-3256)
DDX21 (from UniProt Q9NR30 1-783)
B1
B2

target: T2, ORC2 (human (endogenous in HEK293, K562 and HeLa)); experiment: affinity purification with mass spectrometry

binding, binds:
B3

No constants are given. Whether binding was seen depends on the method and setting. Binding seen in cells or lysates may run through a third protein. These calls come from enrichment with a bait or labelling near it, and not all partners need be listed. For some of these results: Sequences can lack the tags named with a protein.
